Results from patent publication US20240108662A1, “ENGINEERED CELLS FUNCTIONALIZED WITH IMMUNE CHECKPOINT MOLECULES AND USES THEREOF” (The University of North Carolina at Chapel Hill, priority 2020, published 2024).

B1: O08912 (protein, UniProt O08912 1-559, looked up)
chain: MRKFAYCKVVLATSLVWVLLDMFLLLYFSECNKCEEKQERGLPAGDVLELVQKPHEGPGEMGKPVVIPKEDQEKMKEMFKINQFNLMASEMIALNRSLPDVRLEGCKTKVYPDNLPTTSVVIVFHNEAWSTLLRTVHSVINRSPRHMIEEIVLVDDASERDFLKRPLESYVKKLKVPVHVIRMEQRSGLIRARLKGAAVSRGQVITFLDAHCECTAGWLEPLLARIKHDRRTVVCPIIDVISDDTFEYMAGSDMTYGGFNWKLNFRWYPVPQREMDRRKGDRTLPVRTPTMAGGLFSIDRDYFQEIGTYDAGMDIWGGENLEISFRIWQCGGTLEIVTCSHVGHVFRKATPYTFPGGTGQIINKNNRRLAEVWMDEFKNFFYIISPGVTKVDYGDISSRLGLRRKLQCKPFSWYLENIYPDSQIPRHYFSLGEIRNVETNQCLDNMARKENEKVGIFNCHGMGGNQVFSYTANKEIRTDDLCLDVSKLNGPVTMLKCHHLKGNQLWEYDPVKLTLQHVNSNQCLDKATEEDSQVPSIRDCTGSRSQQWLLRNVTLPEIF
modifications: full-length
B2: Q9D8K3 (protein, UniProt Q9D8K3 1-228, looked up)
chain: MAGQRLAAGFLQVPAVTRAYTAACVLTTAAVQLELLSPFQLYFNPHLVFRKFQVWRLITTFLFFGPLGFGFFFNMLFVFRYCRMLEEGSFRGRKADFVFMFLFGGVLMTLLGFLGSLFFLGQALMAMLVYVWSRRSPHVRVNFFGLLNFQAPFLPWALMGFSLLLGNSVVTDLLGILVGHIYYFLEDVFPNQPGGKRLLLTPSVLKLLLDDPQEDPDYLPLPEEQPEL
modifications: full-length
B3: Q9WUQ2 (protein, UniProt Q9WUQ2 1-417, looked up)
chain: MGRRRGVELYRAPFPLYALRIDPKTGLLIAAGGGGAAKTGIKNGVHFLQLELINGCLSASLLHSHDTETRATMNLALAGDILAAGQDAQCQLLRFQVHQQKGSKAEKSGSKEQGPRQRKGAPPAEKKSGAQVHPEGVELKVKNLEAVQTDFSNEPLQKVVCFNHDNTLLATGGTDGHVRVWKVPSLEKVLEFKAHEGEIGDLTLGPDGKLVTVGWDFKASVWQKDQLVTQLQWQENGPASSNTPYRYQACRFGQVPDQLGGLRLFTVQIPHKRLRQPPPCYLTAWDSSTFLPLRTRSCGHEVISCLSVSDSGTFLGLGTVTGSVAIYIAFSLQRLYYVKEAHGIVVTDVTFLPEKGCGPKLLGPHETALFSVAVDSRCQLHLLPSRRSVPVWLLLLLCVGLIIVTILLLQTAFPGFL
modifications: full-length
B4: Q60932 (protein, UniProt Q60932 1-296, looked up)
chain: MCSFFLVLLLWQNMAVPPTYADLGKSARDVFTKGYGFGLIKLDLKTKSENGLEFTSSGSANTETTKVNGSLETKYRWTEYGLTFTEKWNTDNTLGTEITVEDQLARGLKLTFDSSFSPNTGKKNAKIKTGYKREHINLGCDVDFDIAGPSIRGALVLGYEGWLAGYQMNFETSKSRVTQSNFAVGYKTDEFQLHTNVNDGTEFGGSIYQKVNKKLETAVNLAWTAGNSNTRFGIAAKYQVDPDACFSAKVNNSSLIGLGYTQTLKPGIKLTLSALLDGKNVNAGGHKLGLGLEFQA
modifications: full-length
B5: Q63739 (protein, UniProt Q63739 1-173, looked up)
chain: MARMNRPAPVEVTYKNMRFLITHNPTNATLNKFIEELKKYGVTTIVRVCEATYDTTLVEKEGIHVLDWPFDDGAPPSNQIVDDWLSLVKIKFREEPGCCIAVHCVAGLGRAPVLVALALIEGGMKYEDAVQFIRQKRRGAFNSKQLLYLEKYRPKMRLRFKDSNGHRNNCCIQ
modifications: full-length
B6: Q80X73 (protein, UniProt Q80X73 1-385, looked up)
chain: MKLVRKDIEKDNAGQVTLVPEEPEDMWHTFNLVQVGDSLRASTIRKVQTESSTGSVGSNRVRTTLTLCVEAIDFDSQACQLRVKGTNIQENEYVKMGAYHTIELEPNRQFTLAKKQWDSVVLERIEQACDPAWSADVAAVVMQEGLAHVCLVTPSMTLTRAKVEVNIPRKRKGNCSQHDRALERFYEQVVQAIQRHINFEVVKCVLVASPGFVREQFCDYMFQQAVKTDNKVLLENRSKFLQVHASSGHKYSLKEALCDPTVASRLSDTKAAGEVKALDDFYKMLQHEPDRAFYGLKQVERANEALAIDTLLISDELFRHQDVATRSRYVRLVDSVKENAGTVRIFSSLHVSGEQLGQLTGVAAILRFPVPELSDQEDDSSSEED
modifications: full-length
B7: O08547 (protein, UniProt O08547 1-215, looked up)
chain: MVLLTMIARVADGLPLAASMQEDEQSGRDLQQYQSQAKQLFRKLNEQSPTRCTLEAGAMTFHYIIEQGVCYLVLCEAAFPKKLAFAYLEDLHSEFDEQHGKKVPTVSRPYSFIEFDTFIQKTKKLYIDSRARRNLGSINTELQDVQRIMVANIEEVLQRGEALSALDSKANNLSSLSKKYRQDAKYLNMRSTYAKLAAVAVFFIMLIVYVRFWWL
modifications: full-length
B8: Q9ERV1 (protein, UniProt Q9ERV1 1-416, looked up)
chain: MSTKQVTCRYFMHGVCREGSQCLFSHDLANSKPSTICKYYQKGYCAYGARCRYDHTKPPAAAGGAVGPAPNPSPSSGLHSPHPSPDIATSVMRTHSNEPGKREKKTLVLRDRNLTGLAEDKTPPSKVNNPGGCSDPQTSPEMKPHSYLDAIRTGLDDLEASSSYSNEPQLCPYAAAGECRFGDACVYLHGDMCEICRLQVLHPFDPEQRKAHEKMCMSTFEHEMEKAFAFQASQDKVCSICMEVILEKASASERRFGILSNCSHTYCLSCIRQWRCAKQFENPIIKSCPECRVISEFVIPSVYWVEDQNKKNELIEAFKQGMGKKACKYFEQGKGTCPFGSKCLYRHAYPDGRLAEPEKPRKQLSSEGTVRFFNSVRLWDFIENRETRQVPSTDDVDVTELGDLFMHLSGVESSEP
modifications: full-length
B9: P51881 (protein, UniProt P51881 1-298, looked up)
chain: MTDAAVSFAKDFLAGGVAAAISKTAVAPIERVKLLLQVQHASKQITADKQYKGIIDCVVRIPKEQGVLSFWRGNLANVIRYFPTQALNFAFKDKYKQIFLGGVDKRTQFWRYFAGNLASGGAAGATSLCFVYPLDFARTRLAADVGKAGAEREFKGLGDCLVKIYKSDGIKGLYQGFNVSVQGIIIYRAAYFGIYDTAKGMLPDPKNTHIFISWMIAQSVTAVAGLTSYPFDTVRRRMMMQSGRKGTDIMYTGTLDCWRKIARDEGSKAFFKGAWSNVLRGMGGAFVLVLYDEIKKYT
modifications: full-length
B10: Q9D8B3 (protein, UniProt Q9D8B3 1-224, looked up)
chain: MSVFGKLFGAGGGKAGKGGPTPQEAIQRLRDTEEMLSKKQEFLEKKIEQELTAAKKHGTKNKRAALQALKRKKRYEKQLAQIDGTLSTIEFQREALENANTNTEVLKNMGYAAKAMKAAHDNMDIDKVDELMQDIADQQELAEEISTAISKPVGFGEEFDEDELMAELEELEQEELDKNLLEISGPETVPLPNVPSVALPSKPAKKKEEEDDDMKELENWAGSM
modifications: full-length
B11: P16330 (protein, UniProt P16330 1-420, looked up)
chain: MNTSFTRKSHTFLPKLFFRKMSSSGAKEKPELQFPFLQDEDTVATLHECKTLFILRGLPGSGKSTLARLILEKYHDGTKMVSADAYKIIPGSRADFSEAYKRLDEDLAGYCRRDIRVLVLDDTNHERERLDQLFEMADQYQYQVVLVEPKTAWRLDCAQLKEKNQWQLSADDLKKLKPGLEKDFLPLYFGWFLTKKSSETLRKAGQVFLEELGNHKAFKKELRHFISGDEPKEKLELVSYFGKRPPGVLHCTTKFCDYGKAAGAEEYAQQEVVKRSYGKAFKLSISALFVTPKTAGAQVVLTDQELQLWPSDLDKPSASEGLPPGSRAHVTLGCAADVQPVQTGLDLLDILQQVKGGSQGEAVGELPRGKLYSLGKGRWMLSLTKKMEVKAIFTGYYGKGKPVPIHGSRKGGAMQICTII
modifications: full-length
B12: P41216 (protein, UniProt P41216 1-699, looked up)
chain: MEVHELFRYFRMPELIDIRQYVRTLPTNTLMGFGAFAALTTFWYATRPKALKPPCDLSMQSVEIAGTTDGIRRSAVLEDDKLLVYYYDDVRTMYDGFQRGIQVSNNGPCLGSRKPNQPYEWISYKEVAELAECIGSGLIQKGFKPCSEQFIGLFSQNRPEWVIVEQGCFSYSMVVVPLYDTLGADAITYIVNKAELSVIFADKPEKAKLLLEGVENKLTPCLKIIVIMDSYGSDLVERGKKCGVEIISLKALEDLGRVNRVKPKPPEPEDLAIICFTSGTTGNPKGAMITHQNIINDCSGFIKATESAFIASTDDVLISFLPLAHMFETVVECVMLCHGAKIGFFQGDIRLLMDDLKVLQPTIFPVVPRLLNRMFDRIFGQANTSLKRWLLDFASKRKEAELRSGIVRNNSLWDKLIFHKIQSSLGGKVRLMITGAAPVSATVLTFLRTALGCQFYEGYGQTECTAGCCLSLPGDWTAGHVGAPMPCNYVKLVDVEEMNYLASKGEGEVCVKGANVFKGYLKDPARTAEALDKDGWLHTGDIGKWLPNGTLKIIDRKKHIFKLAQGEYIAPEKIENIYLRSEAVAQVFVHGESLQAFLIAVVVPDVESLPSWAQKRGLQGSFEELCRNKDINKAILDDLLKLGKEAGLKPFEQVKGIAVHPELFSIDNGLLTPTLKAKRPELRNYFRSQIDELYATIKI
modifications: full-length

Experiment: Proteomic analysis of native murine pancreata and decelled pancreatic ECM (Table 1)
Parameters: species or system mouse

| Molecule | Mean of log2(intensities) (Native pancreas tissue) [a.u.] | Mean of log2(intensities) (Pancreatic ECM (decelled)) [a.u.] | Pancreatic ECM: Mean of log2(intensities) (abundance of the listed protein in decelled pancreatic ECM) [a.u.] | Native pancreas tissue: Mean of log2(intensities) (abundance of the listed protein in native murine pancreas tissue) [a.u.] |
| --- | --- | --- | --- | --- |
| B1 | 23.50 | 25.31 | – | – |
| B2 | 24.62 | 26.23 | – | – |
| B3 | 28.00 | 29.62 | – | – |
| B4 | 29.41 | 31.11 | – | – |
| B5 | 23.59 | 25.34 | – | – |
| B6 | 24.44 | 26.22 | – | – |
| B7 | 28.01 | 29.87 | – | – |
| B8 | 21.68 | 23.75 | – | – |
| B9 | – | – | 34.48 | 32.34 |
| B10 | 25.64 | 27.55 | – | – |
| B11 | 24.45 | 26.21 | – | – |
| B12 | 24.38 | 26.17 | – | – |
